The values below come from the supplement of paper PMC7824004.

The other results are listed elsewhere or left out. The data scatter; read single values as rough.

This test deals with Candida albicans SN425. Kind of test: biofilm OD600 B-score; higher = more biofilm (less inhibition). To be noted: 10 µM; assay detail: High-throughput adherence inhibition optical density biofilm assay with C. albicans SN425 in RPMI-1640/MOPS pH 7.0, 384-well plates. …. The procedure:
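High-throughput adherence inhibition optical density biofilm assay with C. albicans SN425 in RPMI-1640/MOPS pH 7.0, 384-well plates. Compound (10 µM) was present only during the 90 min adherence step, then washed out, and the biofilm grew 24 h without compound. Biofilm was read as OD600 after removing the media. Scores are the difference from the mean in standard deviations and the plate B-score.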
Turning to `Cc1cccc(OCCN2CCOCC2)c1C`, the “biofilm OD600 B-score” value is -1.29.
For `O=C(Nc1cnc2ccccc2c1)N(c1ccccc1)c1ccccc1` the value was 0.732.
Turning to `NC(=O)C1CCN(C2CC(=O)N(c3ccccc3Cl)C2=O)CC1` (stereo not drawn), the “biofilm OD600 B-score” value is -0.139.
To `O=C(NCc1cccnc1)c1cccc(F)c1` belongs 1.01; to `Cc1cc(C)nc(SCc2ccccc2F)n1`, 1.54; to `COc1ccccc1NC(=O)N1CCc2ccccc2C1`, 0.705.
To `Cc1nc2sc(-c3ccccc3)cc2c(=O)n1CC(N)=O` belongs 0.136.
With `CN(C)c1nc(-c2ccccc2O)nc2ccccc12`, the “biofilm OD600 B-score” value was -2.27.
Consider `COc1ccc(C(C)(C)C)cc1NC(=O)C1CCCCC1C(=O)O` (stereo not drawn), for which the “biofilm OD600 B-score” value was found to be 0.033.
To `NC(=O)CN1NC2C3CCCCC3C3CCCC(C1=O)C32` (stereo not drawn) belongs -2.04.
Regarding `Cc1cc(Cl)ccc1OCC(O)CN1CCN(C)CC1` (stereo not drawn), the “biofilm OD600 B-score” value was -0.92.
On to `O=C(Nc1ccccc1)Nc1ccc(C(=O)N2CCOCC2)cc1`, for which the “biofilm OD600 B-score” value was -4.28.
Turning to `COc1ccc(NC(=O)CSc2nc(O)c(Cc3ccccc3)c(=O)[nH]2)cc1`, the “biofilm OD600 B-score” value is 0.0504.
For `Cc1ccc(C(=O)NCCC2=CCCCC2)o1`, the “biofilm OD600 B-score” value was -0.289.
With `O=C(Nc1ccc(F)cc1)N1CCN(c2ccccn2)CC1`, the “biofilm OD600 B-score” value turned out to be 1.8.
For `Cc1ccsc1C(=O)N1CCN(c2ccccn2)CC1` the value was 0.6.
For `CCN(CC)C(=O)CSc1nc(O)cc(=O)n1-c1ccccc1C` the value was -0.0463; for `O=C1CC(c2ccccc2)CN1C(=O)c1ccccc1` (stereo not drawn), -0.998.
